Most values lie at the floor of the assay. Slopes are relative: functional sequences can read slightly below zero.
Test system: Saccharomyces cerevisiae PS128 hsf1 delta, HSF1(1-493) fusion
Assay: growth estimate (transactivation domain function in HSF1 fusion, heat-shock survival) (a.u. (slope of normalised read count over time)); higher = stronger growth at 37°C, i.e. more transactivation activity
Conditions: library: random library
Experimental: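 Random 60-nt DNA library encoding peptides of up to 20 aa, fused to the C-terminus of yeast HSF1 residues 1-493 (C-terminal TAD deleted) and expressed from the native HSF1 promoter on a CEN plasmid in hsf1-deleted S. cerevisiae PS128. Cells were selected at 37°C on -trp 5-FOA plates for 0, 2, 4, 6 and 8 days and amplicons were sequenced. Growth estimate is the slope of a robust linear fit of total-sum-normalised read counts (normalised to the first time point) over time, using at least 2 replicates. Sequences are classed functional (TAD activity) above a threshold of -0.13, set from stop-codon control sequences.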

Substance	growth estimate
EHGQSRRRTL	< -0.25
PDII	< -0.25
RSLCISPVRSGTPYGRRILP	< -0.25
KSRSWGEVTLTALTEDDQLT	< -0.25
ASGKNHSSKDKVRESSSPPR	< -0.25
RITFCAHVPVNMLTFSVSEA	< -0.25
SCQPFPSQIVRDRDHQGVRD	< -0.25
IIWKILPVLRSSARPCSKQR	< -0.25
GSLLLVISVLGIKNGAHSH	< -0.25
PLCGITRDTCKF	< -0.25
DLGGFHEKSF	< -0.25
IWKPRGRSSETNGCNRERHI	< -0.25
QVPLEKADKNYVGGHTLRGT	< -0.25
PGDAKGSLCLSCLTTSLPRA	< -0.25
PMISRARSHRQNILSDLNKS	-0.227
LLHTL	< -0.25
FSLTSTVREGRRTAHPRTGQ	-0.235
GHPSL	< -0.25
VKLLAIVVG	< -0.25
PKQPERLQSDEYLSKPGMSG	< -0.25
SCESEGTLMGLHAQDAGPVA	< -0.25
HSLTPAVPPRLPR	< -0.25
GLRSGTCGAAPCR	< -0.25
CAWHY	< -0.25

In a second layout: entries from further up.
KSRSWGEVTLTALTEDDQLT
  growth estimate = < -0.25
ASGKNHSSKDKVRESSSPPR
  growth estimate = < -0.25
RITFCAHVPVNMLTFSVSEA
  growth estimate = < -0.25
IIWKILPVLRSSARPCSKQR
  growth estimate = < -0.25

Quoted at random: 3 records from the list.
Substance	growth estimate
QVPLEKADKNYVGGHTLRGT	< -0.25
IIWKILPVLRSSARPCSKQR	< -0.25
RSLCISPVRSGTPYGRRILP	< -0.25

Further results:

Substance	growth estimate
DPQSMHLVVGSTRSWLRLAG	< -0.25
ILGKGSVWGHDAGTHGRSDS	< -0.25
SYGGEGCWASVIELA	< -0.25
WKV	< -0.25
IADFALSQQS	< -0.25
LNVTQ	< -0.25
ANWACTRRTGELSWVGHGGL	< -0.25
WGHWRLCQRPN	< -0.25
WLKTQGGAGTAIRGLWLTFK	< -0.25
VRRISLWVP	< -0.25
CSLARRVIQSIVPYITYLKC	< -0.25
LQLWCPRTGTNGVAVRRLST	-0.0607
WYAPWILSRFCSGHPSWLVS	< -0.25
RTVQRPQSRTNVPSSS	< -0.25
FYGRLQLACEDLEIAGGRRP	< -0.25
LGTHTRQGLLRTG	< -0.25
SNATASNRYALVQYMVSFST	< -0.25
LGNTKQSVLGHASHGCYWHN	< -0.25
FGHPRIRLARVNSCVERNCP	< -0.25
AMPSQYRSARRSTTKFSDRS	< -0.25
LGELTVYCVMGYGRRRYSQA	< -0.25
FMSPDVMENRRELRQGPERS	< -0.25
STTKG	< -0.25
RPSTNVAEVRA	< -0.25

Substance	growth estimate
GSILVAMANASVYFFAVKRW	< -0.25
VVPEIEEI	< -0.25
CTPSIFVRRLD	< -0.25
REAANWLSRSAEGINDDAVR	< -0.25
LCNVGREG	< -0.25
GELLNPWC	< -0.25
GAKGYRRSSTVADGTIRIWN	< -0.25
PRAWWGTIDLLQVL	< -0.25
VPPLRQLLKPCREMLVRISR	-0.227
GRSIWVT	< -0.25
GTFVFISNLVYQVALFRIDR	< -0.25
QQRFNHGSVPAAGVTAGGRD	< -0.25
RLRKN	-0.246
IGDSS	< -0.25
PRRGFSIHMRDVWECFRRGL	< -0.25
TAIVLSKAVLPCESKSCLYH	< -0.25
WSGAIEI	< -0.25
YVGKFSEYRVPVSLGFLKTS	< -0.25
GGLGSWLN	-0.243
SQAPFLRS	< -0.25
LGSSNIR	< -0.25
VAITCRTDPRHLLGE	< -0.25
TCRDSA	< -0.25
RVLVLVCLQAGLMKPKASWT	< -0.25

Substance	growth estimate
GTRKIRT	< -0.25
GRSVRAWVLGVTCNGAEAAA	< -0.25
GTAEHRLAEQ	< -0.25
AQLFRLSTISGWQGDSSRLY	< -0.25
GICNCKKWSGV	< -0.25
IPGVSFRSAALGLPGTTVQA	< -0.25
ASGLLNRRDANAQ	< -0.25
THLKAYSGNSKNGLNVDRGQ	-0.246
RFNRSRGGYQNGGPCL	< -0.25
TQSK	< -0.25
KHTGQRGANSDLATPPFEPQ	< -0.25
LLDLFSWAAGIHLKSR	< -0.25
PLSSVEVRYLHQLKTLTIE	< -0.25
DRREQ	< -0.25
LYGVKK	< -0.25
QSGYAGFFFQSGLCFLFRIE	-0.235
ILTGVI	< -0.25
CRGYIYPGDIGLAMSIGAAN	< -0.25
PRRICNK	< -0.25
SGSSCDRWR	< -0.25
HRNCIAESGILGH	< -0.25
LHSPSPLHLH	< -0.25
ANDFALNYRVPGRVVCQPGI	< -0.25
LRLFEYFEGIFFLRGSR	< -0.25

Substance	growth estimate
QSSVVRGTCTDYW	< -0.25
GVGTVPKATNGLVSCQRSQG	< -0.25
SRGGNN	< -0.25
LCVPRAADHFLGGLVEWPQL	< -0.25
ILSS	< -0.25
QETHSGLVKSRQLHRFSEE	< -0.25
LIEQYTRQIPPGNGSRAQRV	< -0.25
GRSGQVHCCPGVYWQRICTA	< -0.25
VQVLRPAKTVIFSASTRSPP	< -0.25
QQPHFGVHVAS	< -0.25
YWMLQQAFLIRMVCISAVQV	< -0.25
ELPVSYCGVTLWRGTLAHTA	< -0.25
IQYPMLFVVMPMRVSGHLLP	< -0.25
PFATLNAQARTVTRVGIIG	< -0.25
NCERLLARVQTVG	< -0.25
GGTGAGSLKALH	< -0.25
SVSDYASGQL	< -0.25
RLAAGPRNQFISSCIASTNA	< -0.25
WLSS	< -0.25
GFLRQDSGISIIVM	< -0.25
KEWPALWSQAIRLVPRHAPW	< -0.25
FQSRGCGVRALQPVCGLIGG	< -0.25
VLFQSVGAVVNSSPHRDCKK	< -0.25
HDRGIPSPQLVSKED	< -0.25

Substance	growth estimate
ASCCKHTYSIS	< -0.25
GGLMSSGLTTRYSEVMMRAT	< -0.25
AGSCSLSPLIE	< -0.25
TVGLGSVVSRRRTVRHSLEA	< -0.25
SERSET	< -0.25
KSPRRCEYVL	< -0.25
KSRDVSRMVIYVRFGLEREE	< -0.25
KSGPPL	< -0.25
SSEIVPWVI	< -0.25
RCNSNCSWGANTSAPVASVT	< -0.25
RSSETLVEEKSASDFSKRMT	< -0.25
RLPEFRAAANRAQTRNV	< -0.25
FRPCGHVNRVQPLPRND	< -0.25
PGGIGK	< -0.25
APPHLPSRIVSRYLQA	< -0.25
RDEDPSRI	< -0.25
GSSAVEEPSGGASTRFSMAP	< -0.25
IPVLDE	< -0.25
CWLKRATELCGEFAFCPSEF	< -0.25
RAVYISGWLCLGTGSKGVTQ	< -0.25
VVGDWNEACASDRLRCSTTD	< -0.25
SRHITSFRGIQAGNGTLGPE	< -0.25
SQLPEPHVSETFSG	-0.201
LHRKGMMMRQS	< -0.25

Source: the supplement of paper PMC5949888
